Patent publication US20250312473A1 (BEONE MEDICINES I GMBH, priority 2022, published 2025)

Assay: general procedure: solution-phase peptide synthesis; HATU/DIPEA
Settings: late stage modification step

Substance	step yield [% yield]
Benzyl(S)-11-benzyl-1-(9H-fluoren-9-yl)-20,20-dimethyl-3,6,9,12,15-pentaoxo-2,18-dioxa-4,7,10,13,16-pentaazahenicosan-21-oate	29.2
(S)-11-benzyl-1-(9H-fluoren-9-yl)-20,20-dimethyl-3,6,9,12,15-pentaoxo-2,18-dioxa-4,7,10,13,16-pentaazahenicosan-21-oic acid	84.8
